From PubChem BioAssay AID330 (DTP/NCI, 2004)
The list shows only some results of the screen, not a fair sample: it gathers tests that were run many times, whatever their T/C, doses with no T/C, and many T/C values between a quarter and a half above the control. Further doses and runs are listed elsewhere. T/C is the treated group as % of the vehicle group. Some doses have a count of surviving animals in place of a T/C: the source holds a T/C of zero for them, seemingly a mark for toxic or unscored doses. Some survivor counts are full or nearly so, which does not show that the dose was tolerated: the source hardly ever lists a survival T/C far under the control, and the zero likely stands for such cases as well. Counts of survivors are from the toxicity check (mostly the fifth day) where no day follows; animals may have died later. Schedule codes are those of the source, taken here to give the interval after Q, in days (D) or hours (H), and the number of doses after X. Some entries were tested several times; the results are listed from low to high. Brackets with × stand for listed records that agree. For survival time, the PubChem record calls one and a half times the control and up active, and a quarter to a half above the control has no call in these data; cut-offs in other NCI protocols can differ. Some T/C values are followed by the survivors on the day toxicity was checked, most often the fifth; without a count, all were alive then.

Tested on: P388 leukemia ip, CD2F1 mice, survival T/C
Assay: NCI In Vivo Anticancer Drug Screen. Data for tumor model P388 Leukemia (intraperitoneal) in CD2F1 (CDF1) mice
Details: T/C endpoint: median survival time, higher T/C = longer survival
[1] = dose: 40.0 mg/kg/injection, schedule: Q01DX001 (ip), vehicle: water
[2] = dose: 40.0 mg/kg/injection, schedule: Q04DX003 (ip), vehicle: water

With `N[C@@H](Cc1ccc(N(CCCl)CCCl)cc1)C(=O)O` the T/C (dose: 10.0 mg/kg/injection, schedule: Q01DX001 (ip), vehicle: water, evaluated on day 35) was 234 % of control, the T/C (dose: 10.0 mg/kg/injection, schedule: Q04DX003 (ip), vehicle: saline, evaluated on day 30) was 267 and 291 % of control and the T/C (dose: 10.0 mg/kg/injection, schedule: Q04DX003 (ip), vehicle: saline, evaluated on day 45) was 148 and 290 % of control. The T/C (dose: 10.0 mg/kg/injection, schedule: Q04DX003 (ip), vehicle: saline, evaluated on day 50) was 447 % of control, the T/C (dose: 10.0 mg/kg/injection, schedule: Q04DX003 (ip), vehicle: saline, evaluated on day 60) was 106 and 588 % of control and the T/C (dose: 10.0 mg/kg/injection, schedule: Q04DX003 (ip), vehicle: water, evaluated on day 30) was 90, 116, 118, 127 (2×), 136, 141, 194, 209, 223, 256, 260, 266, 272, 283 % of control. The T/C (dose: 10.0 mg/kg/injection, schedule: Q04DX003 (ip), vehicle: water, evaluated on day 35) was 160 and 296 % of control, the T/C (dose: 10.0 mg/kg/injection, schedule: Q04DX003 (ip), vehicle: water, evaluated on day 40) was 128, 214, 241 (2×), 268, 358, 431 % of control and the T/C (dose: 10.0 mg/kg/injection, schedule: Q04DX003 (ip), vehicle: water, evaluated on day 45) was 324 % of control. For the same compound, the survivor count (dose: 10.0 mg/kg/injection, schedule: Q04DX003 (ip), vehicle: water) was 5 of 6, the T/C (dose: 11.0 mg/kg/injection, schedule: Q04DX003 (ip), vehicle: saline) was 125 % of control and the survivor count (dose: 12.0 mg/kg/injection, schedule: Q04DX003 (ip), vehicle: Klucel (hydroxypropylcellulose) (HPC)) was 6 of 6. For the same compound, the T/C (dose: 12.5 mg/kg/injection, schedule: Q01DX001 (ip), vehicle: saline) was 560 % of control, the survivor count (dose: 12.5 mg/kg/injection, schedule: Q04DX003 (ip), vehicle: saline) was 8 of 8 and the T/C (dose: 12.5 mg/kg/injection, schedule: Q04DX003 (ip), vehicle: water) was 133 % of control. The T/C (dose: 15.0 mg/kg/injection, schedule: Q01DX001 (ip), vehicle: saline, evaluated on day 11) was 220 % of control, the T/C (dose: 15.0 mg/kg/injection, schedule: Q01DX001 (ip), vehicle: saline, evaluated on day 30) was 297 % of control and the T/C (dose: 15.0 mg/kg/injection, schedule: Q01DX001 (ip), vehicle: saline, evaluated on day 44) was 225 % of control. The T/C (dose: 15.0 mg/kg/injection, schedule: Q01DX001 (ip), vehicle: saline, evaluated on day 45) was 185, 262, 316, 416, 420, 432, 436, 441, 445 (3×), 450 % of control, the T/C (dose: 15.0 mg/kg/injection, schedule: Q01DX001 (ip), vehicle: saline, evaluated on day 47) was 355 % of control and the T/C (dose: 15.0 mg/kg/injection, schedule: Q01DX001 (ip), vehicle: saline, evaluated on day 49) was 471 % of control. The T/C (dose: 15.0 mg/kg/injection, schedule: Q01DX001 (ip), vehicle: saline, evaluated on day 52) was 287 % of control, the T/C (dose: 15.0 mg/kg/injection, schedule: Q01DX001 (ip), vehicle: saline, evaluated on day 60) was 208, 211, 242, 535, 540, 560, 566, 576 (2×), 582 (3×), 588, 600 % of control and the survivor count (dose: 15.0 mg/kg/injection, schedule: Q04DX002 (ip), vehicle: saline) was 8 of 8. The T/C (dose: 15.0 mg/kg/injection, schedule: Q04DX003 (ip), vehicle: saline) was 130 % of control, the T/C (dose: 15.0 mg/kg/injection, schedule: Q04DX003 (ip), vehicle: water, evaluated on day 30) was 88, 92, 96, 118, 121, 132, 148, 194, 266, 267 % of control and the T/C (dose: 15.0 mg/kg/injection, schedule: Q04DX003 (ip), vehicle: water, evaluated on day 35) was 132 and 298 % of control. For the same compound, the T/C (dose: 15.0 mg/kg/injection, schedule: Q04DX003 (ip), vehicle: water, evaluated on day 45) was 102 % of control [5 of 6 alive], the T/C (dose: 15.0 mg/kg/injection, schedule: Q04DX003 (ip), vehicle: water, evaluated on day 60) was 279 % of control and the survivor count (dose: 15.0 mg/kg/injection, schedule: Q04DX003 (ip), vehicle: water) was 6 of 6. For the same compound, the survivor count (dose: 16.0 mg/kg/injection, schedule: Q01DX005 (ip), vehicle: saline) was 6 of 6, the survivor count (dose: 16.0 mg/kg/injection, schedule: Q01DX005 (ip), vehicle: water) was 6 of 6 and the survivor count (dose: 16.0 mg/kg/injection, schedule: Q01DX009 (ip), vehicle: Klucel (hydroxypropylcellulose) (HPC)) was 4 of 6. For the same compound, the survivor count (dose: 16.0 mg/kg/injection, schedule: Q01DX009 (ip), vehicle: saline) was 10 of 10, the survivor count (dose: 16.0 mg/kg/injection, schedule: Q01DX009 (ip), vehicle: suspension in saline) was 6 of 6 and the survivor count (dose: 16.0 mg/kg/injection, schedule: Q03HX008 (ip), vehicle: saline) was 0 of 6 and 1 of 6. For the same compound, the T/C (dose: 16.0 mg/kg/injection, schedule: Q04DX003 (ip), vehicle: saline) was 125 % of control, the T/C (dose: 16.5 mg/kg/injection, schedule: Q04DX003 (ip), vehicle: saline) was 147 % of control and the survivor count (dose: 20.0 mg/kg/injection, schedule: Q01DX001 (ip), vehicle: Klucel (hydroxypropylcellulose) (HPC)) was 6 of 6. For the same compound, the T/C (dose: 20.0 mg/kg/injection, schedule: Q01DX001 (ip), vehicle: saline, evaluated on day 20) was 261 % of control [6 of 8 alive], the T/C (dose: 20.0 mg/kg/injection, schedule: Q01DX001 (ip), vehicle: saline, evaluated on day 30) was 293 and 297 % of control and the T/C (dose: 20.0 mg/kg/injection, schedule: Q01DX001 (ip), vehicle: saline, evaluated on day 44) was 324 % of control. For the same compound, the T/C (dose: 20.0 mg/kg/injection, schedule: Q01DX001 (ip), vehicle: saline, evaluated on day 45) was 188, 416, 420 [9 of 10 alive], 432, 441, 445 (4×), 450 % of control, the T/C (dose: 20.0 mg/kg/injection, schedule: Q01DX001 (ip), vehicle: saline, evaluated on day 47) was 451 % of control and the T/C (dose: 20.0 mg/kg/injection, schedule: Q01DX001 (ip), vehicle: saline, evaluated on day 49) was 365 % of control. The T/C (dose: 20.0 mg/kg/injection, schedule: Q01DX001 (ip), vehicle: saline, evaluated on day 52) was 514 % of control, the T/C (dose: 20.0 mg/kg/injection, schedule: Q01DX001 (ip), vehicle: saline, evaluated on day 60) was 329, 336, 392, 540, 560, 566, 576, 582 (2×), 588, 600 % of control and the survivor count (dose: 20.0 mg/kg/injection, schedule: Q01DX001 (ip), vehicle: saline) was 8 of 10 and 10 of 10. The T/C (dose: 20.0 mg/kg/injection, schedule: Q01DX001 (ip), vehicle: water, evaluated on day 30) was 166, 175, 225, 288 % of control, the T/C (dose: 20.0 mg/kg/injection, schedule: Q01DX001 (ip), vehicle: water, evaluated on day 35) was 218 % of control and the survivor count (dose: 20.0 mg/kg/injection, schedule: Q01DX001 (iv), vehicle: saline) was 3 of 6. For the same compound, the T/C (dose: 20.0 mg/kg/injection, schedule: Q04DX003 (ip), vehicle: saline, evaluated on day 30) was 135 % of control, the T/C (dose: 20.0 mg/kg/injection, schedule: Q04DX003 (ip), vehicle: saline, evaluated on day 45) was 90 and 119 % of control and the T/C (dose: 20.0 mg/kg/injection, schedule: Q04DX003 (ip), vehicle: saline, evaluated on day 50) was 90 % of control. The survivor count (dose: 20.0 mg/kg/injection, schedule: Q04DX003 (ip), vehicle: saline) was 6 of 6, the T/C (dose: 20.0 mg/kg/injection, schedule: Q04DX003 (ip), vehicle: water, evaluated on day 30) was 90, 119, 152 % of control and the T/C (dose: 20.0 mg/kg/injection, schedule: Q04DX003 (ip), vehicle: water, evaluated on day 35) was 96 and 166 % of control. For the same compound, the T/C (dose: 20.0 mg/kg/injection, schedule: Q04DX003 (ip), vehicle: water, evaluated on day 40) was 93, 97, 101, 134, 355 % of control, the survivor count (dose: 20.0 mg/kg/injection, schedule: Q04DX003 (ip), vehicle: water) was 2 of 6, 4 of 6, 5 of 6, 3 of 3, 6 of 6 (3×) and the survivor count (dose: 20.8 mg/kg/injection, schedule: Q04DX003 (ip), vehicle: saline) was 5 of 8. The survivor count (dose: 32.0 mg/kg/injection, schedule: Q01DX001 (ip), vehicle: suspension in saline) was 6 of 6, the survivor count (dose: 32.0 mg/kg/injection, schedule: Q01DX009 (ip), vehicle: suspension in saline) was 3 of 6 and 5 of 6 and the survivor count (dose: 32.0 mg/kg/injection, schedule: Q03HX008 (ip), vehicle: saline) was 0 of 6. For the same compound, the survivor count (dose: 40.0 mg/kg/injection, schedule: Q01DX001 (ip), vehicle: saline) was 5 of 6, the T/C [1] was 137 % of control and the survivor count [1] was 2 of 6, 2 of 3, 3 of 3. The survivor count (dose: 40.0 mg/kg/injection, schedule: Q01DX001 (iv), vehicle: saline) was 3 of 6, the T/C [2] was 90 % of control [4 of 6 alive] and the survivor count [2] was 1 of 6, 2 of 6, 3 of 6, 4 of 6 (2×), 5 of 6. For the same compound, the survivor count (dose: 64.0 mg/kg/injection, schedule: Q01DX001 (ip), vehicle: suspension in saline) was 5 of 6, the survivor count (dose: 64.0 mg/kg/injection, schedule: Q01DX009 (ip), vehicle: suspension in saline) was 4 of 6 and the survivor count (dose: 80.0 mg/kg/injection, schedule: Q01DX001 (ip), vehicle: saline) was 2 of 6. For the same compound, the survivor count (dose: 80.0 mg/kg/injection, schedule: Q01DX001 (ip), vehicle: water) was 0 of 6, 1 of 3, 2 of 3, the survivor count (dose: 80.0 mg/kg/injection, schedule: Q01DX001 (iv), vehicle: saline) was 1 of 6 and the survivor count (dose: 80.0 mg/kg/injection, schedule: Q04DX003 (ip), vehicle: water) was 1 of 6. The survivor count (dose: 128.0 mg/kg/injection, schedule: Q01DX001 (ip), vehicle: suspension in saline) was 1 of 6, the survivor count (dose: 128.0 mg/kg/injection, schedule: Q01DX009 (ip), vehicle: suspension in saline) was 0 of 6 and the survivor count (dose: 256.0 mg/kg/injection, schedule: Q01DX001 (ip), vehicle: suspension in saline) was 0 of 6. The survivor count (dose: 256.0 mg/kg/injection, schedule: Q01DX009 (ip), vehicle: suspension in saline) was 0 of 6.
